# Library screen at single concentrations

A: 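Phenotypic screen: M. tuberculosis growth, cholesterol and DPPC medium, 4 days; the read-out is not stated. Tested at 50 µM. Direction is inferred from retests: higher values go with more growth inhibition. Size under these conditions: about 69,000 compounds, about 370 of them at 50% or above in at least one test.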
B: 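Whole-cell growth test on Mycobacterium tuberculosis, read after 3 days in glucose-containing 7H9 medium; the read-out is not stated. Tested at 50 µM. The record gives no direction; compounds that gave an IC50 in retests scored well above the rest, so higher reads as more growth inhibition. Size under these conditions: about 69,000 compounds, about 760 of them at 50% or above in at least one test.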

The filed quantity is “Percent Effect” (%).
The record does not define 0% and 100%; most values in the screen are far below 50% and negative numbers occur (in some assays of this library far below -100).
This is an unselected part of the compounds tested.
Two or more numbers in one place are separate tests of the same structure; such repeats can differ widely.

SMILES | A | B
[H][C@]12CCN(C(=O)C3CC=CC3)[C@@]1([H])CC[C@H](COCC1CCOCC1)O2 | -6.145 | -2.168 & -7.088
O=C(COCCOc1ccccc1)N1CCCC(n2ccnc2)C1 (configuration not stated) | -6.067 | 11.22
O=S(=O)(NCCc1cn2ccccc2n1)N1CCOCC1 | -17.32 | -17.01
Cc1csc(C2CCCCN2C(=O)c2cn[nH]c2C)n1 (configuration not stated) | -23.69 | 1.214
c1ccc(-c2ncc(CN3CCCCC3CCn3cccn3)cn2)nc1 (configuration not stated) | 5.976 | 28.8
CC(C)CN1CCN(C(=O)c2ccn(C)c(=O)c2)CC1 | -10.47 | -16.08
CCOc1ccccc1CN(C)C(C)c1nc(-c2cccnc2)no1 (configuration not stated) | 16.54 | 24.68
Cc1nnc(CN2CCCC(c3cc(C(N)=O)[nH]n3)C2)o1 (configuration not stated) | 5.431 | 27.81
O=C(O)C(F)(F)F.[H][C@@]12OCCN(CC3CCOCC3)[C@@]1([H])CC[C@H]2OCC(=O)N1CCCC1 | -17.45 & -7.761 | 9.062
CC(C(=O)O)N1CC2(CCC1=O)CCN(C/C=C/c1ccccc1)CC2 (configuration not stated) | -28.64 | -28.27
CN(Cc1cccnc1)CC1CNCc2nccn2C1 (configuration not stated) | -7.888 | 8.129
CCc1ncnc2c1CCN(C(=O)c1ccncc1F)CC2.O=C(O)C(F)(F)F | -3.561 | 4.798
CC(C)n1nc2c(cc1=O)CN(Cc1nnc(C3CC3)o1)CC2 | -22.15 | -31.64
COc1c(CNC2CCN(c3ncccn3)CC2)c(C)nn1C | 3.745 | 2.738
CC(O)C1CCN(C(=O)Nc2nc(-c3ccccc3)ns2)CC1 (configuration not stated) | 12.34 & -5.735 | 12.13 & 8.097
CN1CC(=O)N(c2cnn(C)c2)CC12CCN(Cc1ccccc1)C2.O=C(O)C(F)(F)F.O=C(O)C(F)(F)F (configuration not stated) | -22.32 | -2.781
Cc1ccc(C(=O)NCCS(=O)(=O)Cc2ccccc2)c(=O)[nH]1 | -20.87 | -13.71
COc1cccc(C2SCC(=O)Nc3ccsc32)c1OC (configuration not stated) | 19.29 & 3.774 | 39.22
CC(C)(C)C(=O)N1CC(=O)N(Cc2ccco2)CC(O)C1 (configuration not stated) | 9.891 | 9.605
Cc1ccc(C(=O)NCC2(O)CCOCC2)cc1F | 14.93 | -3.043 & -18.75
O=S(=O)(c1ccc(F)cc1F)N1CCCCC1c1nnc2n1CCCC2 (configuration not stated) | -15.92 | 0.1748
COc1ccc(OC)c2c(C)cc(N(C)CCO)nc12 | 11.5 | 25.8
Cc1cccc(C(=O)N2CCC3(CC(C(=O)N(C)C(C)C)=NO3)C2)c1 (configuration not stated) | 15.29 | 17.1
CN(C)C(CNC(=O)OCC(F)(F)F)c1ccsc1 (configuration not stated) | -5.873 | 2.627 & -21.3
[H][C@@]12CCN(C(=O)Cc3cccc(F)c3)C[C@]1(COC)CCO2 | -25.41 | -26.58
N#Cc1cccc(CNC(=O)C2=NN(c3ccccc3)C(=O)CN2)c1 | -20.84 | -45.12 & -3.115
COc1ccc(CN2CCN(S(=O)(=O)c3cc(C(=O)O)cs3)CC2)cc1 | -18.16 | -22.38 & 12.56
CC(C)N(CCC#N)C(=O)c1cnc(-c2ccc3c(c2)OCO3)s1 | 7.139 | 15.2
CC(=O)N1CCN(C(=O)CCNc2snc(Cl)c2C#N)CC1 | -21.69 | -14.48
Cc1cn(-c2ccccc2)nc1NS(=O)(=O)c1cc(C(=O)O)ccc1Cl | -6.67 | -14.06
CCc1nc2n(n1)CC(NCc1noc(-c3ccc(C)cc3)n1)CC2 (configuration not stated) | -0.4914 | 3.612
Cc1nnc(C(C)NCC2(c3ccc(Cl)cc3)CCCC2)o1 (configuration not stated) | -1.253 | 6.604
Cc1nc(CCNC(=O)c2cc(C(C)C)nn2C)sc1C | -8.521 & -27.7 | -11
COc1ccc(CNC(C)Cn2cccn2)cc1F (configuration not stated) | -9.907 | -8.812
Cc1cccc(OCC(O)CN2CCN(c3nccs3)CC2)c1 (configuration not stated) | 2.996 & -5.4 | 7.029
Cc1nc(CN(C)C2CCN(CCc3ccccn3)C2)no1 (configuration not stated) | -24.21 | -41.71
O=C(Nc1ccccn1)C1CC(=O)N(Cc2ccccn2)C1 (configuration not stated) | -21.45 | -10.2 & -21.81
Cc1c(C2NC3(CCCC3)C(=O)N2CC2CC2)cc(C#N)n1C (configuration not stated) | 5.133 | -14.85
Cc1ccc(C(=O)N2CCCC(NC(=O)C(C)C)C2)c(O)c1 (configuration not stated) | 6.759 | 13.54
O=C(NCCc1cccc(F)c1)c1nc2c(s1)CCCN2C(=O)C1CC1 | 21.39 | 28.74
Cc1cnn(CC2CCCCN2CCCS(N)(=O)=O)c1 (configuration not stated) | -64.79 | -53.54
O=C(Cn1cc(-c2ccccc2)ncc1=O)Nc1nc(C2CC2)n[nH]1 | -17.19 | -34.2
CCC(CO)NC(=O)NCc1cc(C#N)ccc1F (configuration not stated) | 4.574 | 24.63
Cc1[nH]ccc1C(=O)N1CCCN1C(=O)OC(C)(C)C | 1.315 | -26.93
CC(c1ccccn1)N(C)Cc1ccc(-n2ccnc2)cc1 (configuration not stated) | 17.82 | 1.007 & 0.07837
CSc1ccc(CN(C(=O)c2cc(C)[nH]c(=O)c2)C2CC2)cc1 | 8.434 | 9.169
O=C(Cn1cccn1)N1CCC(c2nnc(C(F)(F)F)o2)CC1 | -15.23 | -24.48
CSc1ccc(CNc2ccccc2CN2CCC(O)CC2)cc1 | 0.7314 | 16.87
O=C(NCC1Cn2nnc(-c3ccccc3)c2CO1)c1ccc[nH]1 (configuration not stated) | -8.451 | -30.44
CC(=O)N1CCCC(c2nc(-c3ccccc3)c[nH]2)C1 (configuration not stated) | 0.221 & 14.16 | -10.01
CCN(CC)C(=O)c1ccn(COc2cccc(Cl)c2Cl)n1 | 6.979 | 0.5905
CNC(=O)NC(C)c1c(F)cccc1Cl (configuration not stated) | -4.371 | -16.88
Cc1cnccc1N1CCCN(C(=O)CCCS(N)(=O)=O)CC1 | 11.59 | 3.958 & -0.03436
Cc1ccccc1CS(=O)(=O)CC(=O)N(C)Cc1ccccc1 | 8.607 | 31.55 & 2.641
O=C(NCCCOc1cccnc1)c1cn(Cc2ccccc2F)nn1 | 27.16 | 20.08
CC(C)(NCc1cccc(C(N)=O)c1)c1ccc2c(c1)OCO2 | -3.55 | 4.445 & 6.451
Cc1ccc(S(=O)(=O)NCC(C)C#N)cc1Br (configuration not stated) | -1.893 | -6.425
CCOc1ncccc1NC(=O)c1ccc(C(C)=O)s1 | -32.27 | -16.23
CCc1nc(C2CCCN2Cc2nnc(CC)o2)no1 (configuration not stated) | 12.22 | 6.904
O=C(O)C(F)(F)F.[H][C@@]12CCN(Cc3ccc(F)cc3)C[C@@]1([H])[C@H](C(=O)N1CCCCO1)CCO2 | -9.249 | 13.52
Fc1ccc(-c2noc3c2CN(CC2CC2)CC3)cc1F | 10.13 | -30.23
CCc1cc2c(N3CCCC(c4cc(C(N)=O)[nH]n4)C3)ncnc2s1 (configuration not stated) | 13.88 & 2.028 | 40.44
CSc1ccc(NC(=O)NCC2CCCO2)cc1F (configuration not stated) | 15.01 | 40.81
CN(Cc1ccc(C2CC(=O)Nc3n[nH]cc32)o1)S(C)(=O)=O (configuration not stated) | -9.915 & 1.279 | 0.4267
CC(NCc1cccc(Cl)c1)c1ccc(OCC(=O)NC2CC2)cc1 (configuration not stated) | -10.12 | -21.45
COc1c(C)cc(C(C(=O)O)N(C)Cc2ccn[nH]2)cc1C (configuration not stated) | 0.1205 | -12.24
Cc1ncnc2c1CCN(c1cc(C(F)(F)F)ncn1)CC2 | -2.519 | -18.84
Cc1nc(C(=O)N2CCC(c3nnc(Cn4ccnc4)n3C)CC2)cs1 | -2.48 | -13.81
COCCN(Cc1ccco1)c1ncc(C#N)cc1Cl | -13.95 | -23.93 & 0.2659
CC(NC(=O)CCCOc1ccccc1Cl)c1ccncc1 (configuration not stated) | -39.14 | -43.46 & -9.484
CCNC(=O)COc1cc(CC)c2c(C)nn(-c3ccc(C)cc3)c2n1 | 12.98 | 27.96
Cc1nn(C)c2ncc(CNCCc3ccccn3)cc12 | 16.5 | -7.152 & 5.431
CCc1ncc(C(=O)N2CCOCC2CC(=O)c2ccccc2)s1 (configuration not stated) | 9.469 & 6.59 | -5.088
NS(=O)(=O)c1cnn(CCC(=O)N(C2CCCCC2)C2CC2)c1 | 20.97 | 8.958
Nc1nc2c(c(N3CCC(CCn4cccn4)CC3)n1)CCNCC2 | 6.052 & 5.854 | 8.447
Cc1cc(CN(C)C(=O)NC2CCN(S(C)(=O)=O)CC2)no1 | 10.91 | -1.047
[H][C@@]12CN(c3nnc(C)s3)C[C@H](C(=O)NCCOC)[C@]1([H])CCO2 | -17.88 | 8.7
NC(=O)c1ccc(=O)n(Cc2cc(Br)ccc2Cl)n1 | 14.29 | 12.69
[H][C@@]12CCN(Cc3c(C)noc3C)[C@]1([H])CC[C@H](c1nnc(C)o1)O2 | -2.521 | 3.537
CCc1cc(CNC(=O)N2CCN(c3nc(C)c(C)s3)CC2)on1 | 1.209 | 10.26
Cc1n[nH]c(C)c1S(=O)(=O)N1CCC(Oc2ccccc2F)CC1 | 5.808 | 16.33

For reference, 9 entries once more:

SMILES,A,B
CN(Cc1cccnc1)CC1CNCc2nccn2C1 (configuration not stated),-7.888,8.129
Cc1cccc(C(=O)N2CCC3(CC(C(=O)N(C)C(C)C)=NO3)C2)c1 (configuration not stated),15.29,17.1
CSc1ccc(NC(=O)NCC2CCCO2)cc1F (configuration not stated),15.01,40.81
Cc1nn(C)c2ncc(CNCCc3ccccn3)cc12,16.5,-7.152 & 5.431
CCC(CO)NC(=O)NCc1cc(C#N)ccc1F (configuration not stated),4.574,24.63
O=C(Cn1cc(-c2ccccc2)ncc1=O)Nc1nc(C2CC2)n[nH]1,-17.19,-34.2
Cc1nnc(CN2CCCC(c3cc(C(N)=O)[nH]n3)C2)o1 (configuration not stated),5.431,27.81
CCc1ncnc2c1CCN(C(=O)c1ccncc1F)CC2.O=C(O)C(F)(F)F,-3.561,4.798
Fc1ccc(-c2noc3c2CN(CC2CC2)CC3)cc1F,10.13,-30.23

The values are deposited in ChEMBL (CHEMBL3988442, “University of Dundee, Small-Polar-MMV Screening Library” (2021)).